In patent US9974865B2 (AGENSYS, INC., priority 2015, dated 2018):

Test: general procedure: solution-phase peptide synthesis; HATU/DIEA; DEPC/DIEA

Fmoc-MeVal-Abu(3-N3)-Dil-Dap-Phe-NH2
step yield (coupling step, formic acid salt): 75%

(2S,3S)—N-((3R,4S,5S)-1-((S)-2-((1R,2R)-3-(((S)-1-amino-1-oxo-3-phenylpropan-2-yl)amino)-1-methoxy-2-methyl-3-oxopropyl)pyrrolidin-1-yl)-3-methoxy-5-methyl-1-oxoheptan-4-yl)-3-azido-N-methyl-2-((S)-3-methyl-2-(methylamino)butanamido)butanamide
step yield (late stage modification step, TFA salt): 79%
